For the experiment, the target named is DDX21-BioID2-HA (human) (UniProt Q9NR30). Nature of the experiment: proximity labelling.

Protein sequences, listed by entry. Tags and fused reporters are not part of them.
UniProt Q9NR30: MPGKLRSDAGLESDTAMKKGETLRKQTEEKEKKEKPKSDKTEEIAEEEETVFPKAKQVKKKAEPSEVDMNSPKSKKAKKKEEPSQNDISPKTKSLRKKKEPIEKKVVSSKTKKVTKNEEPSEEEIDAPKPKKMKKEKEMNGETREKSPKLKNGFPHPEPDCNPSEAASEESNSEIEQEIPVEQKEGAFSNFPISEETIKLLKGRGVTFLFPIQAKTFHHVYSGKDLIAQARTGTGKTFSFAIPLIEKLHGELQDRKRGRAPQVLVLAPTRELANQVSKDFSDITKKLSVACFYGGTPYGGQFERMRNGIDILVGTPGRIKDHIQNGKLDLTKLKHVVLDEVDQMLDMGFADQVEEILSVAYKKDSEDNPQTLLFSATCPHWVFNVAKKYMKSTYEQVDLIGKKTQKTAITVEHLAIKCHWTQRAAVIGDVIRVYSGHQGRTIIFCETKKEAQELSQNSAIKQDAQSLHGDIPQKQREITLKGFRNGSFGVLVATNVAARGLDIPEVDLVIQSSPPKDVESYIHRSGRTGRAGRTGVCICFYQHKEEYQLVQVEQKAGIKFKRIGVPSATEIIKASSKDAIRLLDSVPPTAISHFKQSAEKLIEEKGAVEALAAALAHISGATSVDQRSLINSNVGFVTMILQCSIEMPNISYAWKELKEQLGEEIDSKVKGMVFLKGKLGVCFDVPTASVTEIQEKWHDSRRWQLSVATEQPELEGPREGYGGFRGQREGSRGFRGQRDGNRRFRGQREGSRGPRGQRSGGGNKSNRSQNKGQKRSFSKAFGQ
UniProt Q13547: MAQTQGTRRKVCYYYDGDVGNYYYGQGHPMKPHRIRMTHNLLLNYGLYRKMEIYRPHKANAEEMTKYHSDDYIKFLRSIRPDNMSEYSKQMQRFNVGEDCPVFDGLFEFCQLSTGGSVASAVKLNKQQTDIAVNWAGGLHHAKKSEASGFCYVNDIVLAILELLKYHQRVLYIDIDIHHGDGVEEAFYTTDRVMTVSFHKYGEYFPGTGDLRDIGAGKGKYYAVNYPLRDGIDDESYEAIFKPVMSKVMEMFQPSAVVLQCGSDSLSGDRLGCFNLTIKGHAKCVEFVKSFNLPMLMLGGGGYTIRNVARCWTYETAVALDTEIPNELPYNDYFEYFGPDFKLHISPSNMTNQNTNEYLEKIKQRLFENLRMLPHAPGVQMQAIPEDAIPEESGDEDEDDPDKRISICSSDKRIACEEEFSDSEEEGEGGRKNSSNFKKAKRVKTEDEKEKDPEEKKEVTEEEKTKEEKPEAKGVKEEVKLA
UniProt Q92769: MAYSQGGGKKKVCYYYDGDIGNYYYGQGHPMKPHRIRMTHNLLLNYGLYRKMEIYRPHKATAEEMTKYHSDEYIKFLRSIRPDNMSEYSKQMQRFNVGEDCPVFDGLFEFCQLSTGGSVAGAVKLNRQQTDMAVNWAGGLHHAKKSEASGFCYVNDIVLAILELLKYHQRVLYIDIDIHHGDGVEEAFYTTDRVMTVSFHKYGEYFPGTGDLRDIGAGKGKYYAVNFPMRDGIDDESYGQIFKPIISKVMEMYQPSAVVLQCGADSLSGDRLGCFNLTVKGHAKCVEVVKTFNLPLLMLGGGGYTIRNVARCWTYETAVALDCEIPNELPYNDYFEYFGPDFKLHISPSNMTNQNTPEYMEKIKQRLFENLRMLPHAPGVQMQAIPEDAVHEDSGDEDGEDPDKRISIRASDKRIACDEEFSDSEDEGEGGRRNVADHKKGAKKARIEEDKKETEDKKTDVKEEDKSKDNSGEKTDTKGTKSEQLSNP

No constants are given. Whether binding was seen depends on the method and setting. In cells and extracts the contact can be indirect. Here binding means that the protein was enriched with, or labelled near, the bait; the list need not be complete.

For two substances, binding results are on record in publication doi:10.1101/2025.09.04.674186.

Consider “HDAC1 (endogenous) (from UniProt Q13547 1-482) (enzyme)”, for which the binding result is listed as “binds”.

For “HDAC2 (endogenous) (from UniProt Q92769 1-488) (enzyme)”, the binding result was “binds”.
